Test in all cases: filter binding
Data set [1] concerns the target Prostate-specific antigen (PSA), low-pI fraction (UniProt P07288). The following applies: T positions from B-TTP (quinoline boronic acid dU); glycoform specificity control; purified native protein; protein details: Lee BioSolutions, low pI glycoform fraction; label: alpha-32P-dATP; single-stranded ….
Data set [2] concerns the target Prostate-specific antigen (PSA), high-pI fraction (UniProt P07288). The following applies: T positions from B-TTP (quinoline boronic acid dU), purified native protein, protein details: Lee BioSolutions, high pI glycoform fraction, label: alpha-32P-dATP.
The subject of data set [3] is Fibrinogen, periodate-treated. The following applies: same buffer, purified native protein, protein details: glycans oxidised with sodium periodate, label: alpha-32P-dATP, single-stranded DNA.
Data set [4] deals with Fibrinogen (glycosylated, untreated). The following applies: purified native protein, label: alpha-32P-dATP, single-stranded DNA.
In data set [5] the test system is Fibrinogen, deglycosylated. The following applies: same buffer, purified native protein, protein details: chemically deglycosylated with TFMS, label: alpha-32P-dATP, single-stranded DNA.
Setting [6] is: T positions from B-TTP (quinoline boronic acid dU).
The mark [7] stands for this setting: T positions from B-TTP (quinoline-8-boronic acid linked at 5-position of dU via triazole), outside primer.

Sequences of proteins named here, by UniProt entry; tags and fusion partners are left off. Residues count along the entry.
UniProt P07288, 25-261: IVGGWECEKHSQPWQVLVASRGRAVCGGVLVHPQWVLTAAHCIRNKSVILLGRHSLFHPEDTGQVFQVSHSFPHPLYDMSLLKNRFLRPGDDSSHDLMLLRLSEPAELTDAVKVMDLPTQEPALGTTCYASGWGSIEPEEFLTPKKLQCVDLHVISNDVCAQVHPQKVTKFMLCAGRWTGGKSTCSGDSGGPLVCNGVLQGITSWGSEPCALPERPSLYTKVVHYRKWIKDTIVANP

The exact form of at least one protein or probe is not confirmed.

As usually defined, the Kd is the free concentration of one partner at which half of the binding sites on the other are occupied at equilibrium, for simple one-to-one binding. A higher Kd goes with lower affinity. “CCTTCGTTGTCTGCCTTCGTACTCTAGCCTACGTAATCACGATTACGGATATCGGTTTGCCATCGTCATGACCCTTCAGAATTCGCACCA [PSA aptamer 5D]”: the Kd in data set [1] worked out at 0.75 µM; in data set [2] (single-stranded DNA), 0.019 µM.

As to “CCTTCGTTGTCTGCCTTCGTTATCGGTTTGCCATCGACGGTCGGCACTTCCGCTACCATCTGGCCTAATGACCCTTCAGAATTCGCACCA [PSA aptamer 5A]”, the dissociation constant Kd in data set [1] was 0.19 µM; in data set [2] (selected against high-pI PSA, single-stranded …) it was 0.007 µM.

Regarding “CCTTCGTTGTCTGCCTTCGTTTCTACGGTAACCTTATCGGTTTGCCATCGACGGCCGTAATTCGGCATCGACCCTTCAGAATTCGCACCA [PSA aptamer 5C]”, the figures for the Kd in data set [1] and in data set [2] (single-stranded DNA) were 0.67 µM and 0.016 µM, respectively.

In the case of “CCTTCGTTGTCTGCCTTCGTATATTCGGCGTAGCCATTAGCTTAGCGATTAGCCTATCGGTTTGCCATCGACCCTTCAGAATTCGCACCA [PSA aptamer 5E]”, the Kd is 0.82 µM in data set [1] and 0.034 µM in data set [2] (single-stranded DNA).

As for “CCTTCGTTGTCTGCCTTCGTAGGACCGCAGACATCGACGCAGGGAAATTCCGCAAGTCCAGCCAAATGCCACCCTTCAGAATTCGCACCA [85B B-TTP (114O)]”, the Kd in data set [3] (setting [6]) was 0.118 µM; in data set [4] (T positions from B-TTP (quinoline boronic acid dU), same buffer, 5.8 nM in Table 1), 0.00644 µM; in data set [5] (setting [6]), 0.0862 µM.

“CCTTCGTTGTCTGCCTTCGTCTAGGCATATCGGTTTGCCATCGTCGAGCACTTCCGCTACGTAAGATTCCACCCTTCAGAATTCGCACCA [PSA aptamer 5B]”: the Kd in data set [1] amounted to 0.83 µM; in data set [2] (single-stranded DNA), 0.008 µM.

As to “CCTTCGTTGTCTGCCTTCGTAGTCGACTCTGACGCATGGACGTATCCTGTGCGTATGCATTATGAAGCACACCCTTCAGAATTCGCACCA [85C B-TTP (114F)]”, the Kd in data set [3] (setting [6]) was 0.203 µM; in data set [4] (T positions from B-TTP (quinoline boronic acid dU), same buffer, 16 nM in Table 1), 0.0171 µM; in data set [5] (setting [6]), 0.371 µM.

As to “CCTTCGTTGTCTGCCTTCGTAGCGGATCGAATTACGCGTTAACGGCAACCGATAACGGGACCGATTGCACACCCTTCAGAATTCGCACCA [85A B-TTP (114H)]”, the Kd in data set [3] (setting [7]) was found to be 0.0707 µM; in data set [4] (T positions from B-TTP (quinoline-8-boronic acid linked at 5-position of dU via triazole), outside primer, equilibrium ultrafiltration (Microcon YM-100), 300 mM NaCl, 5 mM MgCl2, 20 mM Tris pH 7.6, 25 C, 6.3 nM in Table 1) it was 0.00617 µM; in data set [5] (setting [7]), 0.39 µM.
